Experimental data from article PMC3355077.
No constants are given. Whether binding was seen depends on the method and setting. Binding seen in cells or lysates may run through a third protein. Here binding means that the protein was enriched with, or labelled near, the bait; the list need not be complete.

By UniProt entry, the sequences of proteins in these tests, tags left out. Where a name states a change or a piece, a line headed by the entry shows the natural chain unless it says otherwise. Chains listed by the source or under a name are the forms on record and can include a tag or linker.
Psip1/p52 (endogenous) (mouse (endogenous in NIH 3T3 and MEFs)) (Q99JF8, form named): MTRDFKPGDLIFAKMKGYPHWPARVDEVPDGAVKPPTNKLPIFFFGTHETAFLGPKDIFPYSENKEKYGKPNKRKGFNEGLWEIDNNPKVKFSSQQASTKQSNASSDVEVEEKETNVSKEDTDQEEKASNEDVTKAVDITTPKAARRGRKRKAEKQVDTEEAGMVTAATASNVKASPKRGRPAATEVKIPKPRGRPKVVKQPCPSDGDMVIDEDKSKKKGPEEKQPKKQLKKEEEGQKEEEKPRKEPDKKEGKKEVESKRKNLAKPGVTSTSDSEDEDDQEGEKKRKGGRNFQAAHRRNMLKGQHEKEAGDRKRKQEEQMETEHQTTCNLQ

B1: Rbm 12b (protein, UniProt Q80YR9 1-836)
chain: MAVVIRLLGLPFIAGPVDIRHFFKGLTIPDGGVHIIGGKVGEAFIIFATDEDARRAISRSGGFIKDSSVELFLSSKVEMQKTIEMKRTARVGRGRPGSGASGVGNVYHFSDALKEEESYSGYGSSVNRDAGFHTNGTGLDLRPRKTRPLKAENPYLFLRGLPYLVNEDDVRVFFSGLCVDGVILLKHHDGRNNGDAIVKFASCVDASGGLKCHRSFMGSRFIEVMQGSEQQWIEFGGTATEGGDTPRMRSEEHSPSRRINGRHFRKRSHSKSPRARSRSPLGFYVHLKNLSLNTNKRDLRNLFRDTDLTNDQIKFVYKDERRTRYAFVMFKNQKDYNTALGLHKTVLQYRPVLIDPVSRKEMVRIIECYEKKRPESLEKERPGRVSQKYSQEGFSGSGQKLCIYIRNLPFDVTKGEVQKFFADFSLVEDDIYLLCDDKGVGLGEALVRFKSEEQAMKAERLNRQRFLGIEVLLRLISEEQMQEFGVKSSWLSNERTQACSRSHDGDDCSCLFDLKDPSSCSFGQSESLRYHPKDLRKMGHFKHPQGYFRQSDRRSPEDFRHSPEDYRHPWEEHTSHSREEDWRLPLEDWKWSQEDDFRQCHEKDRRQLRSPWEEDFRRPSQEHFRRSYQEHIRQPPEEHFRRSREEDFRHVADEDFRQASDEDFRTSQEDLRYPTDEDFRRVSVEDLREVPEKDLRLPKNFRSPGEEFWTPPDFRGQHPFGNFDHLQGGKFDFEKYKFGSFPDAKVTSDLNLNCVSDKIIPVKISNLPFKANASEILDFFHGYKVIPDSVSLQYNEQGLPIGEAIVAMTNYNEALAAVKDLSGRPVGPRKVKLSLL
B2: Noc3 (protein, UniProt Q8VI84 1-807)
chain: MKARRNKKQVPSFRKLIKTSKVKLENKLKNKQFKQQSTIKKYRKEQRKLRQAVKDAVSKKPIPLEDPKSKRPVKRMEREEDEEEEALPLDMMDEDDLQLMKDLGQKASFLTRDLSSSEPVHIKKRKHESVIEKYEKVPRTLQTAPEKELIHLLPIKDKSGIIPQAREKPVTDVQQEEEAEEELEDEEEVIEDPRKELTIEEHVIERKKKLQDKKIQIAALASAILSDPESHIKKLKELRSMLMEQDPDVAVTVRKLVIISLMELFKDITPSYKIRPLTEAEKSTKIRKETQKLREFEEGLVSQYKFYLENLEQIVKDWKQRKLKKSNVVSLKAYKGLAEVAVKSLCELLVALPHFNFHNNIIVLIVPLMNDGSKPVSEMCCEAVKKLFKQDKLGQASLGVIKVISGFVKGRNYEVRPEMLKTFLCLRIKEVEVKKDTEDINKPKRFMTFKEKRKTLSRMQRKWKKAEEKLERELREAEASESTEKKLKLHTETLNIVFVTYFRILKKAQKSPLLPAVLEGLAKFAHLINVEFFDDLLVVLHTLIESGELSYQESLHCVQTAFHILSGQGDVLNIDPMKFYTHLYKTLFTLHAGATNDGIEIVLHCLDVMLSKRRKQVSHQRALAFIKRLCTLALQVLPNSSIGLLATTRILMHTFPRTDLLLDNESQGSGVFLPELEEPEYCNAQNTALWELHTLRRHYHPIVRRFAAHLLAGAPSEGSEALKPELSRRSAVELFETYSMAAMTFNPPVESSHSKRKDKFLPGDSFLNEDLNQLIKRYCNEAAPETPLDFAKCLESSSRQYRVNGLS
B3: U5-102 kDa (protein, UniProt Q91YR7 1-941)
chain: MNKKKKPFLGMPAPLGYVPGLGRGATGFTTRSDIGPARDANDPVDDRHAPPGKRTVGDQMKKNQAADDDDEDLNDTNYDEFNGYAGSLFSSGPYEKDDEEADAIYAALDKRMDERRKERREQREKEEIEKYRMERPKIQQQFSDLKRKLAEVTEEEWLSIPEVGDARNKRQRNPRYEKLTPVPDSFFAKHLQTGENHTSVDPRQTQFGGLNTPYPGGLNTPYPGGMTPGLMTPGTGELDMRKIGQARNTLMDMRLSQVSDSVSGQTVVDPKGYLTDLNSMIPTHGGDINDIKKARLLLKSVRETNPHHPPAWIASARLEEVTGKLQVARNLIMKGTEMCPKSEDVWLEAARLQPGDTAKAVVAQAVRHLPQSVRIYIRAAELETDIRAKKRVLRKALEHVPNSVRLWKAAVELEEPEDARIMLSRAVECCPTSVELWLALARLETYENARKVLNKARENIPTDRHIWITAAKLEEANGNTQMVEKIIDRAITSLRANGVEINREQWIQDAEECDRAGSVATCQAVMRAVIGIGIEEEDRKHTWMEDADSCVAHNALECARAIYAYALQVFPSKKSVWLRAAYFEKNHGTRESLEALLQRAVAHCPKAEVLWLMGAKSKWLAGDVPAARSILALAFQANPNSEEIWLAAVKLESENNEYERARRLLAKARSSAPTARVFMKSVKLEWVLGNISAAQELCEEALRHYEDFPKLWMMKGQIEEQGELMEKAREAYNQGLKKCPHSTPLWLLLSRLEEKIGQLTRARAILEKSRLKNPKNPGLWLESVRLEYRAGLKNIANTLMAKALQECPNSGILWSEAVFLEARPQRKTKSVDALKKCEHDPHVLLAVAKLFWSERKITKAREWFHRTVKIDSDLGDAWAFFYKFELQHGTEEQQEEVRKRCENAEPRHGELWCAVSKDITNWQRKIGEILVLVAARIKNTF
B4: Mybbp1A (protein, UniProt Q7TPV4 1-1344)
chain: MAEMKSPTKAEPATPAEAAQSDRHSLLEHSREFLDFFWDIAKPDQETRLRATEKLLEYLRTRPNDSEMKYALKRLITGLGVGREAARPCYSLALAQLLQSFEDIPLCDILDQIQEKYSLQAMNKAMMRPSLFANLFGVLALFQSGRLVKDKEALMKSVQLLKILSQHPNHLQGQPIKALVDILSEVPESMFQEILPKVLKGNMKVILRSPKYLELFLLAKQRVPTKLESLMGSVDLFSEDNIPSLVNILKVAANSVKKEHKLPNVALDLLRLALKESRFELFWKKVLEEGLLKNPSWTSSYMCFRLLGASLPLLSEEQLQLVMRGDLIRHFGENMVISKPQNLFKIIPEISTYVGTFLEGCQDDPKRQLTMMVAFTTITNQGLPVMPTFWRVTRFLNAEALQSYVAWLRDMFLQPDLNSLVDFSTANQKRAQDASLNVPERAVFRLRKWIIHRLVSLVDHLHLEKDEAVVEQIARFCLFHAFFKTKKATPQIPETKQHFSFPLDDRNRGVFVSAFFSLLQTLSVKFRQTPDLAENGKPWTYRLVQLADMLLNHNRNVTSVTSLTTQQRQAWDQMMSTLKELEARSSETRAIAFQHLLLLVGLHIFKSPAESCDVLGDIQTCIKKSMEQNPRRSRSRAKASQEPVWVEVMVEILLSLLAQPSNLMRQVVRSVFGHICPHLTPRCLQLILAVLSPVTNEDEDDNVVVTDDADEKQLQHGEDEDSDNEDNKNSESDMDSEDGEESEEEDRDKDVDPGFRQQLMEVLKAGNALGGVDNEEEEELGDEAMMALDQNLASLFKEQKMRIQARNEEKNKLQKEKKLRRDFQIRALDLIEVLVTKQPEHPLILELLEPLLNVIQHSMRSKGSTKQEQDLLHKTARIFMHHLCRARRYCHEVGPCAEALHAQVERLVQQAGSQADASVALYYFNASLYLLRVLKGNTNKRHQDGHKLHGADTEDSEDQAANCLDLDFVTRVYSASLESLLTKRNSSLTVPMFLSLFSRYPVICKNLLPVLAQHVAGPSRPRHQAQACLMLQKTLSARELRVCFEDPEWEQLITQLLGKATQTLQTLGEAQSKGEHQKELSILELLNTLLRTVNHEKLSVDLTAPLGVLQSKQQKLQQSLQQGNHSSGSNRLYDLYWQAMRMLGVQRPKSEKKNAKDIPSDTQSPVSTKRKKKGFLPETKKRKKLKSEGTTPEKNAASQQDAVTEGAMPAATGKDQPPSTGKKKRKRVKASTPSQVNGITGAKSPAPSNPTLSPSTPAKTPKLQKKKEKLSQVNGATPVSPIEPESKKHHQEALSTKEVIRKSPHPQSALPKKRARLSLVSRSPSLLQSGVKKRRVASRRVQTP
B5: NOL6 (protein, UniProt Q8R5K4 1-1152)
chain: MPSAGERPAVKMGPAPAGEQHRRATEDPEVMELAFEGMDKEKAPSRKRARTEPPAEGLLQPVNLSREELYKEPTNEELNRLRETEILFHSTLLRLQVEELLKEVRLSEKKKERIDNFLKEVTKRIQKVPPVPEAELTDQSWLPAGVRVPLHQVPYAVKGSFRFRPPSQITVVGSYLLDTCMRPDINVDVAVTMPREILQDKDGLNQRYFRKRALYLAHLAYHLAQDPLFSSVRFSYMSGCHLKPSLLLRPHGKDERLVTVRLLPCPPLDFFRPCRLLPTKNNVRSAWYRGQSCPDYEPPTPHYNTWILQDVALETHMHLLASVLGSAQGLKDGVALLKVWLRQRELDKGLGGFNGFIISMLVAFLVSKRKIHTTMSGYQVLRSVLQFLATTDLTINGISFSLSSDPSLPTLAEFHQLFAVVFVDPSGRLNLCADVTASTYNQVQYEAELSMALLDSKADDGFQLLLMTPKPMIQAFDHVVHLHPLSRLQASCHQLKLWPELQDNGGDYVSAALGPLTNILVQGLGCRLHLLAHSRPPVPEWSINQDPPKHKDAGTLTLGFLFRPEGLTSVIDLGPEADKPEAADFRQFWGTRSELRRFQDGAIREAVVWEAESLFEKRLIPHQVVTHLLALHADIPDTCIQYVGGFLDALIQNPKEISSTGEEALALAVRCYDDLSRLLWGLEGLPLTVSAVQGAHPVLRYTEVFPPAPVRPAYSFYNRLQELASLLPRPDKPCPAYVEPMTVVCHLEGSGQWPQDAEAVQRVRAAFQLRLAEVLTQEHRLQCCATATHTDVLKDGFVFRIRVAYQREPQILKEVRSPEGMVSLRDTPASLRLERDTKLLPLLTSALHGLQQQYPAYSGVARLAKRWVRAQLLGEGFTDESLDLLAASLFLHPEPFTPPSVPQVGFLRFLYLVSTFDWKNNPLIVNLNGELTAEEQVGIRSSFLAARTQLPVMVIITPQDRRSSVWTQDGPSAQILQQLVSLAAEALPILEKQLMDPRGPGDIRTVFRPPFDMYDVLIHLTPRHIPRHRQAVDPPVASFCRGLLAEPGPSSLMPVLGYDPPQLYLAQLREAFEDLALFFYDQHGGEVIGVLWKPSSFQPQPFKASSIKGRMVVSQGGELVMLPNIEAILEDFAVLGEGLVQAVEARSERWTV
B6: NRF (protein, UniProt Q8BY02 1-690)
chain: MEKILHMAEGIDIGEMPSYDLMLPKPSKGQKRYLSTYDGQNPPKKQAGSKFHVRARFEPVHFVASSSKAERQEDPYGPQTKDVNGRTHFASMPRNFYQDYTQDSFSIQDGNSQYCNSSGFIFTKDQPVATNMYFDSGNPAPSSTSQQANCQPAPEPPPSQMYPESLVAEKQYFIEKLTATIWKNLSNPEMTSGSDKINYTYMLTRCIQACKTNPEYIYAPLKEIPPADIPKNKKLLTDGYACEVRCQNIYLTTGYAGSKNGSRDRATELAVKLLQKRIEVRVVRRKFKHIIGEDLVVCQIGMLSYEFPPALKPPEDLVVLGKDASGQPIFNSSAKHWTNFVITENANDAIGILNNSASFNKMSIEYKYEMMPNRTWRCRVFLQDHCLAEGYGTKKTSKHAAADEALKVLQKTQPTYPSVKSSQCHSGSSPKGSGKKKDIKDLVVYENSSNPVCTLNDTAQFNRMTVEYVYERMTGLRWKCKVILESEVIAEAVGVKKSVKYEAAGEAVKTLKKTQPTVINNLKKGTVEDVISRNEIQGRSAEEAYKQQIKEDNIGNQLLRKMGWTGGGLGKSGEGIREPISVKEQHKREGLGLDVERVNKIAKRDIEQIIRNYARSESHSDLTFSTELTNDERKQIHQIAQKYGLKSKSHGVGHDRYLVVGRKRRKEDLLDQLKQEGQVGHYELVMPQAN

Each binder was assayed against Psip1/p52 (endogenous) (mouse (endogenous in NIH 3T3 and MEFs)) (UniProt Q99JF8) (assay: affinity purification with mass spectrometry; A300-847 IP from NIH 3T3 nuclear extract, washes with 200 mM KCl; gel bands analysed by MS/MS (Mascot)).

binding, binds:
B1, B2, B3, B4, B5, B6
